The values that follow come from PubChem BioAssay AID2685 (National Center for Advancing Translational Sciences (NCATS), 2010).

Some of the results follow. The main result of the screen is listed elsewhere. These columns were measured beside it and carry no call. Compounds called inactive in the main read-out are mostly missing here. Words in brackets tell the shape of the fitted curve; partial curves, single points and poor fits give uncertain potencies.

This experiment in a line: qHTS Assay for Lipid Storage Modulators in Drosophila S3 Cells.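 For cell number change: cells counted by Cell Tracker Red CMTPX staining in the red channel.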 The settings on record: BODIPY lipid droplet fluorescence, 18-24 h; for cell number change: measured here: cell count max response, cells fed with added oleic acid. The procedure, abridged: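 Drosophila S3 cells loaded with oleic acid (400 uM, as added) and compounds at several concentrations; lipid droplets imaged by 488-nm laser-scanning cytometry, 500–530 nm intensity and object ratio to cell channel. Percent activity normalized to 20 uM Triacsin C.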

[1] abbreviates: measured here: cell number channel AC50, cells fed with added oleic acid.
Where [2] appears, read: measured here: lipid fluorescence (Fed channel) AC50, cells fed with added oleic acid.

Regarding `Cc1nc(N/N=C/c2ccc(O)cc2)c2cnn(-c3ccccc3)c2n1`, the cell number change was -41.7%. The AC50 under setting [1] is 14.6 µM [falling, partial curve]. Moreover, under setting [2], the AC50 was 7.31 µM [falling, partial curve].

`O=C(Cn1ncc2c(=O)oc3ccccc3c21)N1CCCN(Cc2ccccc2F)C1`: the cell number change turned out to be 7.4%. Further, the AC50 under setting [2] is 5.8 µM [rising, partial curve, poor fit].

`O=C1CN(C(=O)/C=C/c2ccc(Cl)cc2)c2ccccc2N1`: the cell number change turned out to be 23%. For the same molecule, the AC50 under setting [2] is 0.731 µM [rising, single point].

For the molecule `O=C(N/N=C/c1oc(O)c2ccccc12)c1ccccc1O`, the cell number change is 13.2%. The AC50 under setting [1] was 1.64 µM [falling, partial curve, poor fit].

For the molecule `NC(=O)C[n+]1cccc(CNC(=O)c2ccc(OC(F)F)cc2)c1`, the AC50 under setting [2] is 29.1 µM [falling, single point].

As to `CCCCCn1c(NC(=O)c2ccco2)c(S(=O)(=O)c2ccc(C)cc2)c2nc3ccccc3nc21`, the cell number change was 0.468%. Also, under setting [2], the AC50 is 5.8 µM [rising, single point].

Turning to `O=C(Cc1ccccc1)N1CCC(c2nc(-c3ccc(F)cc3)no2)CC1`, the cell number change was determined as 4.6%. In addition, under setting [2], the AC50 is 4.11 µM [rising, full curve, poor fit].

`COc1cc2c(cc1OC)C(c1ccc(SC)cc1)CC(=O)N2` (centres undefined): the cell number change is -17.2%. Besides, under setting [2], the AC50 was 29.1 µM [falling, single point].

For `CCn1cc(CCC(=O)NC(C)c2ccccc2)c2ccccc21` (centres undefined), the cell number change is -12%. Besides, the AC50 under setting [2] was 29.1 µM [falling, single point].

In the case of `Cc1ccc(NC2c3ncccc3C(=O)N2C2CCCCC2)cc1C` (centres undefined), the AC50 under setting [1] was 0.206 µM [rising, partial curve].

Regarding `Cc1ccc(N2C(=O)N(CC(=O)Nc3ccc(C)cc3[N+](=O)[O-])C(=O)C2C)cc1` (centres undefined), the cell number change amounted to 22.9%.

Consider `OCc1ccccc1OCCCN1CCC(Cc2ccccc2)CC1`, for which the cell number change is -14.3%. Also, under setting [2], the half-maximal activity concentration (AC50) is 6.51 µM [falling, partial curve].

Regarding `COc1ccc(S(=O)(=O)N(C)c2nc3ccccc3n3c(CC(C)C)nnc23)cc1`, the cell number change is -36.9%. Also, the AC50 under setting [1] was 5.8 µM [falling, full curve, poor fit]. In addition, the AC50 under setting [2] is 14.6 µM [falling, partial curve].

Regarding `CN1CCc2c(sc3c2C(=O)NC(c2ccccn2)N3)C1` (centres undefined), the cell number change is 6.58%. Also, under setting [2], the concentration at half-maximal activity (AC50) is 14.6 µM [rising, single point].

As for `NS(=O)(=O)c1ccc(N/N=C/c2ccc3c(c2)OCO3)c([N+](=O)[O-])c1`, the cell number change is 112%. Further, the AC50 under setting [1] was 6.51 µM [falling, single point]. Also, under setting [2], the AC50 is 0.58 µM [rising, single point].

For `COc1cccc(N2CCN(C(=O)CC(C)(C)CC3=NS(=O)(=O)c4ccccc4N3)CC2)c1`, the cell number change was 15.2%. Under setting [2], the AC50 is 16.4 µM [falling, partial curve].

On to `C=CCn1c(SCc2c(C)noc2C)nc2sc3c(c2c1=O)CCC(C)C3` (centres undefined), for which the cell number change came out at 37%. The AC50 under setting [1] is 9.2 µM [rising, partial curve, poor fit]. The AC50 under setting [2] is 0.164 µM [falling, full curve, poor fit].

Turning to `COCCn1nnnc1CN(CCc1ccc(OC)c(OC)c1)Cc1cc2ccc(C)cc2[nH]c1=O`, the cell number change was -19.8%. Further, the AC50 under setting [2] was 6.51 µM [falling, single point].

Consider `O=[N+]([O-])c1ccc(CSc2nnc(Cc3ccccc3)o2)cc1`, for which the cell number change was found to be 16.2%. Under setting [2], the AC50 is 14.6 µM [rising, partial curve, poor fit].

For `O=C(Nc1nc(-c2cccs2)cs1)c1ccco1`, the cell number change came to 19.5%.

`Cc1ccc(CN(CC(=O)NC2CCCC2)C(=O)c2csnn2)cc1`: the cell number change came out at 14.1%.

Take `Cc1cc(Br)ccc1NC(=O)CN(C)C(=O)CN1C(=O)NC(C)(C2CC2)C1=O` (centres undefined): the cell number change stood at 4.69%.

For the molecule `COCCCNC(=O)c1c(NC(=O)C2COc3ccccc3O2)sc2c1CCCC2` (centres undefined), the half-maximal activity concentration (AC50) under setting [2] is 6.51 µM [falling, single point].

As to `CCOC(=O)C1(Cc2cccc(Cl)c2)CCCN(C(=O)CCNC(C)=O)C1` (centres undefined), the AC50 is 0.00411 µM [rising, full curve, poor fit] under setting [1] and 29.1 µM [rising, single point] under setting [2].

Take `CC(C)(Cc1ccc(O)cc1)NC(=O)c1ccccc1`: the AC50 under setting [2] is 4.61 µM [rising, single point].

On to `COc1cccc(C(=O)C2CCCN(Cc3c(C)n(C)n(-c4ccccc4)c3=O)C2)c1` (centres undefined), for which the cell number change was -11.9%. Besides, under setting [2], the AC50 is 6.51 µM [falling, single point].

On to `Cc1ccccc1C(=O)Nc1cc(NC(=O)c2ccccc2C)cc(C(=O)O)c1`, for which the cell number change is -8.01%. Further, the AC50 under setting [2] was 6.51 µM [rising, single point].

Consider `Cc1nn(-c2ccccc2)c(Oc2ccc(F)cc2)c1/C=N/n1cnnc1`, for which the cell number change was -14.3%. In addition, under setting [2], the AC50 was 6.51 µM [falling, single point].

Take `Cc1ccc(-n2ncc(Br)c(Br)c2=O)cc1`: the cell number change is -7.12%.

In the case of `COc1ccc(-c2nc(CSCC(=O)NC3CCCC3)c(C)o2)cc1OC`, under setting [1], the AC50 was 1.3 µM [rising, partial curve, poor fit].

For the molecule `O=C(CCN1C(=O)c2ccccc2S1(=O)=O)Nc1cccc2ccccc12`, the cell number change was -27.4%. Further, the AC50 under setting [2] was 23.1 µM [falling, single point].

On to `CCOC(=O)CSC1=Nc2ccccc2C2=NC(CC(=O)NCc3ccc4c(c3)OCO4)C(=O)N12` (centres undefined), for which the cell number change was determined as 6.09%. Further, the AC50 under setting [2] was 29.1 µM [rising, single point].

In the case of `CCn1c(SCC(=O)OCC(=O)N2c3ccccc3NC(=O)C2(C)C)nnc1-c1ccco1`, the AC50 under setting [1] was 0.103 µM [rising, full curve, poor fit].

Take `O=C(N1CCN(c2ccccc2)CC1)C1(S(=O)(=O)c2ccc(Cl)cc2)CC1`: the cell number change is -2.86%. Also, the concentration at half-maximal activity (AC50) under setting [2] is 0.231 µM [rising, full curve, poor fit].

In the case of `CC(OC(=O)CCN=C1NS(=O)(=O)c2ccccc21)C(=O)NC1CCCCC1C` (centres undefined), the cell number change was 15%.

Take `Cc1ccc(OCC(=O)NNC(=O)C(=O)N2CCCC2)c(C)c1`: under setting [2], the AC50 was 0.651 µM [rising, single point].

Consider `COCCCn1c(SCC(=O)NC2CCCC2)nnc1-c1ccccc1`, for which the cell number change amounted to 16.7%. Further, the AC50 under setting [2] was 29.1 µM [rising, single point].

On to `C/C(N)=C(/C#N)C(=O)CSc1nc2cc(Cl)ccc2c(=O)n1-c1ccc(C)cc1`, for which the cell number change is -25.2%. Further, the AC50 under setting [2] was 29.1 µM [falling, single point].

For the molecule `O=C(CN1C(=O)c2ccccc2C1=O)Nc1cccc2cccnc12`, the cell number change came out at 0.659%. Also, under setting [2], the AC50 was 0.58 µM [rising, single point].

Consider `Clc1ccc(OCCOCCOc2cccc3cccnc23)c(Br)c1`, for which the cell number change came to 28.3%. Also, the concentration at half-maximal activity (AC50) under setting [2] is 14.6 µM [rising, partial curve].

With `CCOc1ccc(CC(=O)Nc2c3c(nn2C(C)(C)C)CS(=O)(=O)C3)cc1`, the AC50 under setting [2] was 29.1 µM [falling, single point].

Consider `Cc1ccc2[nH]ccc(=O)c2c1`, for which the cell number change was -10.7%. The AC50 under setting [2] was 3.26 µM [falling, single point].

For `Cc1nc2ccc(Br)cn2c(=O)c1Cl`, the cell number change was 2.2%.

As for `O=S1(=O)CCC(NS(=O)(=O)c2cccc3cccnc23)C1` (centres undefined), the cell number change was -18.7%. Moreover, the AC50 under setting [2] was 0.58 µM [falling, full curve].

For `COc1ccc2nc(/N=C(\N)NC(=O)N3c4ccccc4Sc4ccccc43)nc(C)c2c1`, the cell number change is -4.4%. Under setting [2], the AC50 is 29.1 µM [falling, partial curve].

Take `CC1=Nn2c(nc(-c3ccccc3)c2-c2ccccc2)NC(=O)C1Br` (centres undefined): the cell number change is -7.79%. The concentration at half-maximal activity (AC50) under setting [2] was 6.51 µM [rising, single point].

Turning to `CC(/C=N/n1c(-c2cc(C)[nH]n2)n[nH]c1=S)=C\c1ccccc1`, the cell number change was -19.7%. Further, the AC50 under setting [2] was 1.16 µM [rising, partial curve].

In the case of `Cc1nc(CN(C)C(=O)CC2C(=O)NCCN2Cc2ccc(-c3ccccc3)cc2)cs1` (centres undefined), the cell number change turned out to be 21.6%. In addition, the concentration at half-maximal activity (AC50) under setting [2] was 29.1 µM [falling, single point].

On to `CCOc1ccc(NC(=O)COC(=O)c2cc([N+](=O)[O-])ccc2N2CCOCC2)cc1`, for which the AC50 is, setting by setting: under setting [1], 0.58 µM [rising, full curve]; under setting [2], 0.731 µM [rising, full curve].

On to `COc1ccccc1OCc1nc2ccccc2[nH]1`, for which the AC50 under setting [1] was 2.31 µM [rising, partial curve].

With `CCOC(=O)NC(Nc1cc(C)ccn1)(C(F)(F)F)C(F)(F)F`, the cell number change is -0.549%. Moreover, the AC50 under setting [2] is 29.1 µM [falling, single point].

With `CCc1c(SCCC(=O)O)nc2ccccc2c1C`, the cell number change was determined as 32.1%. In addition, under setting [1], the AC50 is 23.1 µM [rising, partial curve, poor fit].

With `CCNc1nc2c(c(=O)n(C)c(=O)n2C)n1Cc1ccc(Cl)cc1`, the cell number change was -11.4%. The AC50 under setting [2] was 6.51 µM [rising, single point].

Regarding `O=C(NCc1ccccc1)C1CCCN(c2cnccn2)C1` (centres undefined), the cell number change was -17.6%. For the same molecule, the AC50 under setting [1] was 0.116 µM [falling, full curve, poor fit].

Turning to `CC(=O)c1cccc(NC(=O)Nc2nc(C)cc(C)n2)c1`, the cell number change is 0.54%.

As for `C=CCOc1ccc(Cl)cc1CNC1CCCC1`, the AC50 under setting [1] was 0.731 µM [falling, full curve, poor fit] and the AC50 under setting [2] was 0.00461 µM [falling, full curve, poor fit].

As to `COc1ccc(C(=O)/C(C#N)=N/Nc2ccc([N+](=O)[O-])cc2)cc1`, the cell number change stood at 14%.

Take `CCCCCN(C(=O)CCC(=O)OCC(=O)c1ccc(CCC)cc1)c1c(N)n(CCCC)c(=O)[nH]c1=O`: the cell number change was determined as 37.1%. In addition, the concentration at half-maximal activity (AC50) under setting [1] is 0.461 µM [rising, full curve, poor fit]. For the same molecule, the AC50 under setting [2] is 29.1 µM [rising, single point].

As for `Cc1ccc(Cn2c(SCC(=O)N/N=C/c3ccccc3OCC(=O)O)nc3ccccc32)cc1`, the cell number change was found to be 36.4%. The AC50 under setting [1] is 0.517 µM [rising, full curve, poor fit].

For the molecule `O=C1CN(C(=O)CSc2nncs2)c2ccccc2N1`, the cell number change was 23.3%. The AC50 under setting [2] was 2.59 µM [rising, partial curve].

Consider `CC(C)C(c1nnnn1Cc1ccco1)N1CCN(C2CCCC2)CC1` (centres undefined), for which the cell number change came to 23.7%. Moreover, the AC50 under setting [1] was 0.00461 µM [rising, full curve, poor fit].

As a reminder, the AC50 is the midpoint of the concentration-response curve, whichever way the signal moves. A higher AC50 goes with activity only at high concentration.
